Measured values reported in publication PMC9174544.
Read-outs that look alike come from different tables or passages of the source. These are yes or no findings as the source states them, for the method shown. Binding seen in cells or lysates may run through a third protein. Some results given as binding are weak or reduced against the parent protein; the word gives no strength.

Protein sequences, listed by entry. Tags and fused reporters are not part of them.
UniProt P52732: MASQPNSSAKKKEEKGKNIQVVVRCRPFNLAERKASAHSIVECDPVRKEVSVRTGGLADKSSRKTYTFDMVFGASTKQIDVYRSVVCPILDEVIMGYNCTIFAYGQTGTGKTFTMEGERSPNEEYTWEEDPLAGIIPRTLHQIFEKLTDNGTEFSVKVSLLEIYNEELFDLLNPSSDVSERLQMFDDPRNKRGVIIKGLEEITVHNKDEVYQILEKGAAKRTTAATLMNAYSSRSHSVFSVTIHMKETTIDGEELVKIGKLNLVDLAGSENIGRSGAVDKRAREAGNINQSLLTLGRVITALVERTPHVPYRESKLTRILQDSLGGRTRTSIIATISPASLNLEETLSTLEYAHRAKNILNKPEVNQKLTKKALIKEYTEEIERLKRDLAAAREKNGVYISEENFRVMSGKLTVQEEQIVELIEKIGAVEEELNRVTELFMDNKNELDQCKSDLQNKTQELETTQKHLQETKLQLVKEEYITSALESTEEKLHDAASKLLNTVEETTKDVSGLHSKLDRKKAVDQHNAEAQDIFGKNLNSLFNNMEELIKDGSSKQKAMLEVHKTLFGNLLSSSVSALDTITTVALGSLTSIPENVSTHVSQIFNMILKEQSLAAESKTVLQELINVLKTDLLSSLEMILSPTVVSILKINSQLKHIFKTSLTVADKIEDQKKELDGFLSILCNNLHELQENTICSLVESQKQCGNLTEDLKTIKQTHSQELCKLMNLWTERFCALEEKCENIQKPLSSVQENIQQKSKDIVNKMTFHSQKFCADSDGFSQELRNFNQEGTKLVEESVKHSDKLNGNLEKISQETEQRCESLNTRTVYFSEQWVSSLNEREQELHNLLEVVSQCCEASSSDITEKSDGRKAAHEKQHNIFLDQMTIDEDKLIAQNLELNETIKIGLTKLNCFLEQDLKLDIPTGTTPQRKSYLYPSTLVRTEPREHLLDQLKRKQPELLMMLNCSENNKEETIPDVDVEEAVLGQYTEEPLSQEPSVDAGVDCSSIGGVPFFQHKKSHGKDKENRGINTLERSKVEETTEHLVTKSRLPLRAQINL
UniProt Q9HAU4: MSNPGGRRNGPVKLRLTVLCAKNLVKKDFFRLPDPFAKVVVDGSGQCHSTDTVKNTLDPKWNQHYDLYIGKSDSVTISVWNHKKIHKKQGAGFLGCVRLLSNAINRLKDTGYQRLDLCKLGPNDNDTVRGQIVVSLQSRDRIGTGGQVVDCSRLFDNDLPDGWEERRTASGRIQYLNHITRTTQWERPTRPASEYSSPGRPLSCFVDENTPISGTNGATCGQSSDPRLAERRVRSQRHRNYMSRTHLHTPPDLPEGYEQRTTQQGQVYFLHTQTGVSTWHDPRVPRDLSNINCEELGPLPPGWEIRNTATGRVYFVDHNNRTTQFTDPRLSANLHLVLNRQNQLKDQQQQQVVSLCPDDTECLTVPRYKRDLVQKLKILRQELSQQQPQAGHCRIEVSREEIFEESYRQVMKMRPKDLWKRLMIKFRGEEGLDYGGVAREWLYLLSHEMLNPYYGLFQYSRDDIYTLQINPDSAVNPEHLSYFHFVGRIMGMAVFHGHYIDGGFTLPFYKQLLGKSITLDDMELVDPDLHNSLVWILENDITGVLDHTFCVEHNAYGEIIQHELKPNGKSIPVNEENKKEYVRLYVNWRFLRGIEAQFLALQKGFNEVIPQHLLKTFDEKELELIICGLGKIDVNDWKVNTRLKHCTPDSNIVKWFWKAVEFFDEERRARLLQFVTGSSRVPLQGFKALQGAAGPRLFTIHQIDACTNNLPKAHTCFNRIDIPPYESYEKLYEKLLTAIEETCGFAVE

B1: Tumor necrosis factor receptor associated factor 4 (TRAF4) (protein, UniProt Q9BUZ4 1-470)
chain: MPGFDYKFLEKPKRRLLCPLCGKPMREPVQVSTCGHRFCDTCLQEFLSEGVFKCPEDQLPLDYAKIYPDPELEVQVLGLPIRCIHSEEGCRWSGPLRHLQGHLNTCSFNVIPCPNRCPMKLSRRDLPAHLQHDCPKRRLKCEFCGCDFSGEAYESHEGMCPQESVYCENKCGARMMRRLLAQHATSECPKRTQPCTYCTKEFVFDTIQSHQYQCPRLPVACPNQCGVGTVAREDLPGHLKDSCNTALVLCPFKDSGCKHRCPKLAMARHVEESVKPHLAMMCALVSRQRQELQELRRELEELSVGSDGVLIWKIGSYGRRLQEAKAKPNLECFSPAFYTHKYGYKLQVSAFLNGNGSGEGTHLSLYIRVLPGAFDNLLEWPFARRVTFSLLDQSDPGLAKPQHVTETFHPDPNWKNFQKPGTWRGSLDESSLGFGYPKFISHQDIRKRNYVRDDAVFIRAAVELPRKILS

Key:
Assay in all cases: co-IP; endogenous proteins in MCF-7 (and, for TRAF4 with Eg5, MDA-MB-231) cell lysates; antibodies against TRAF4, Eg5 or Smurf2, agarose A/G beads, 4°C, immunoblotting; for Smurf2 with Eg5 also after TRAF4 si-RNA
[1] = biological target: Eg5 (human (endogenous in MCF-7 and MDA-MB-231)) (UniProt P52732)
[2] = biological target: Eg5 (human (endogenous in MCF-7 and MDA-MB-231)) (UniProt P52732); remark: listed apart in the source
[3] = biological target: Smurf2 (human (endogenous in MCF-7)) (UniProt Q9HAU4)

Molecule | binding [1] | binding [2] | binding [3]
Smurf2 (from UniProt Q9HAU4 1-748) | binds |  | 
B1 |  | binds | binds
